For assay [1], the target named is Fibronectin Extra Domain B mutant E42Q D68N E64Q, hexahistidine-tagged (human). The assay can be described thus: binding of fluorescent peptide nanoworms to protein-coated beads; His-tagged proteins (60 µg/40 µL beads) on Ni-NTA magnetic agarose beads; FAM-labelled PL1-NW 80 µg/reaction in PBS, 1% BSA, 0.1% NP40; 6 washes; eluted with 500 mM imidazole; fluorescence 485/535 nm; percent of WT after baseline correction with control protein P32; both purified.

Assay [2] concerns the target Fibronectin Extra Domain B mutant D68N D70N, hexahistidine-tagged (human). The assay is described as above.

The record followed here is paper PMC8707168, “PL1 Peptide Engages Acidic Surfaces on Tumor-Associated Fibronectin and Tenascin Isoforms to Trigger Cellular Uptake” (Pharmaceutics, 2021).

Results are given in words; binding and its absence hold for the method and conditions named. A result given as binding can be weak or reduced; the word gives no strength.

PPRRGLIKLKTS (FAM fluorophore label; peptide coated on iron oxide nanoworms) [PL1-functionalized iron oxide nanoworms (FAM-labelled PL1 peptide on NWs)]: the binding entry in assay [1] and in assay [2] was “binds” in each case.
